# Assay results taken from the supplement of paper PMC10849652.
# Protein sequences, listed by entry. Tags and fused reporters are not part of them. Lines headed by an entry give the natural chain unless they say otherwise; changes in a name come on top.
# UniProt P14316: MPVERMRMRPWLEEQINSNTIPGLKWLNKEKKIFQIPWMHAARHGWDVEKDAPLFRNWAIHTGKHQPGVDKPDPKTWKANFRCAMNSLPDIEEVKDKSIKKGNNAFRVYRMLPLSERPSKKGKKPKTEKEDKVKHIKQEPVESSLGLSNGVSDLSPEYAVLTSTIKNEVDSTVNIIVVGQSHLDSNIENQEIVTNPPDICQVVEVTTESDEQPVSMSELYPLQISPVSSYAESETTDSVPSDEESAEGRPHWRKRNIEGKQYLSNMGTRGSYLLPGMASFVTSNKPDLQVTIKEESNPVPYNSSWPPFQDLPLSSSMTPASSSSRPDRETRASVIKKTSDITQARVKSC
# UniProt Q92551: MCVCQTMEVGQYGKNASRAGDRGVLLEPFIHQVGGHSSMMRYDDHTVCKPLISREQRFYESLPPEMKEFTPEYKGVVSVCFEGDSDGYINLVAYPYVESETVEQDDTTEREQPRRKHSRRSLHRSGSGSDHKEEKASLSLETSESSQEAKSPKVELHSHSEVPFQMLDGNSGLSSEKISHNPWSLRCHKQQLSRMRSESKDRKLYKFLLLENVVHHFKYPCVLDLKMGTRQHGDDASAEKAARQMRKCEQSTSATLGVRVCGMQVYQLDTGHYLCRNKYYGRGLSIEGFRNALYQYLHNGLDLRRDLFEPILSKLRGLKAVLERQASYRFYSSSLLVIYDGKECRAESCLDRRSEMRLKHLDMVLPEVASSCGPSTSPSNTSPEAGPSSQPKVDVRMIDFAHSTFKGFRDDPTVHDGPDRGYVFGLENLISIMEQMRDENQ
# UniProt Q96J02: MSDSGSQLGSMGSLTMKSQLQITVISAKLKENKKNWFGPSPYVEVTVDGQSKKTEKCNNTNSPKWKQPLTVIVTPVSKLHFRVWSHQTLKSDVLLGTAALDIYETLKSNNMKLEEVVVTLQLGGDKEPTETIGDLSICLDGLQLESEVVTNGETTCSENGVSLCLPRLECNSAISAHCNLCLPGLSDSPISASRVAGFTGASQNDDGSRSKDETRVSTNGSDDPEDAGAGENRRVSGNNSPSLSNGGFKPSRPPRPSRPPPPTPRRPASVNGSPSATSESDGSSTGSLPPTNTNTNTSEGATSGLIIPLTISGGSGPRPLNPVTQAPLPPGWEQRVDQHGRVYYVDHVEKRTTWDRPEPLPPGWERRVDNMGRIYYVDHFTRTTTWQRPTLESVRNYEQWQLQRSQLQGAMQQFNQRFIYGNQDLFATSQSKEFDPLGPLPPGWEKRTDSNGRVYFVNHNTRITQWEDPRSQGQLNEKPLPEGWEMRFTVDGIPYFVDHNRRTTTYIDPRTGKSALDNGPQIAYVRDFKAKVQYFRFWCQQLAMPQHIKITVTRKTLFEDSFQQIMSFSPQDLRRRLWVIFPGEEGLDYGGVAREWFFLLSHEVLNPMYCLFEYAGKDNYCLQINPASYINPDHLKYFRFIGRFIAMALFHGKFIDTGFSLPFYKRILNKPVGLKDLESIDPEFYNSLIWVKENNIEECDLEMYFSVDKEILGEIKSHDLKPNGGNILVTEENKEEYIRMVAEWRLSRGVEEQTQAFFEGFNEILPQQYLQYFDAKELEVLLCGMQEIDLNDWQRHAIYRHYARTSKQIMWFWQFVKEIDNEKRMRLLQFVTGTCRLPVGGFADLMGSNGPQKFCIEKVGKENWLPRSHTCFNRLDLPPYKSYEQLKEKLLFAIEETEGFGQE
# UniProt Q9H910: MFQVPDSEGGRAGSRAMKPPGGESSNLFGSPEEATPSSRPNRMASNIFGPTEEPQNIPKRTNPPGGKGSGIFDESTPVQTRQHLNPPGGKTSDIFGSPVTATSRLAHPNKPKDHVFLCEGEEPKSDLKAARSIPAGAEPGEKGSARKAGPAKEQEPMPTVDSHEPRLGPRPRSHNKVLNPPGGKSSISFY
# UniProt O60674: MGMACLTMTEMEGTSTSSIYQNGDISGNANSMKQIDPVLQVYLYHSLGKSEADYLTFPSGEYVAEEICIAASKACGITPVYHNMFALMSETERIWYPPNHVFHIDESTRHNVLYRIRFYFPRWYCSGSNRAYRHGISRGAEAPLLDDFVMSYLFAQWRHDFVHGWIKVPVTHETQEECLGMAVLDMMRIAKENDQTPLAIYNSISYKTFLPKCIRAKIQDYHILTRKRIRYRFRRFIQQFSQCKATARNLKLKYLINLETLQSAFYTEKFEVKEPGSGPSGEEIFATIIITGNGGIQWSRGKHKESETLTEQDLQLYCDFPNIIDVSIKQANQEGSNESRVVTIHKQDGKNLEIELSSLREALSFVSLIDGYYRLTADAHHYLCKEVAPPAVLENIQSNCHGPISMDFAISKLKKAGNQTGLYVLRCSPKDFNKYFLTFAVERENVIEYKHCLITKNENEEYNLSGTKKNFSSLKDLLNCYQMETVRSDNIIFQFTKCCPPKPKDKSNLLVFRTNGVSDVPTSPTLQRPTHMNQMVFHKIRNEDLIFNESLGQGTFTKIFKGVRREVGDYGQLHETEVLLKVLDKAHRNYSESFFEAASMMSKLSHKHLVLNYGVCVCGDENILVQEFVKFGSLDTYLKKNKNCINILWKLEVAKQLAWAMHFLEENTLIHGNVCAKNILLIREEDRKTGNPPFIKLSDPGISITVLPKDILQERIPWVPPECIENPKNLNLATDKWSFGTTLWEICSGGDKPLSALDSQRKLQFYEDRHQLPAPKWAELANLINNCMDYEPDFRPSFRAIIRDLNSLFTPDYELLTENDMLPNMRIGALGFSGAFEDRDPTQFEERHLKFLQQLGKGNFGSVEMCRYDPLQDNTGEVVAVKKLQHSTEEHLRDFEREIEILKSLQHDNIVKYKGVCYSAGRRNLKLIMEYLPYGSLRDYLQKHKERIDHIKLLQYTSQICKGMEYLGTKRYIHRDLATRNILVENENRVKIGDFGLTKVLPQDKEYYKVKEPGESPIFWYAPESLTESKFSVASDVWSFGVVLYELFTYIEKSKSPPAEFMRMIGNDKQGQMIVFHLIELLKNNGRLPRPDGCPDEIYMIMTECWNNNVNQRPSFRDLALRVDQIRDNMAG
# UniProt Q8N5M9: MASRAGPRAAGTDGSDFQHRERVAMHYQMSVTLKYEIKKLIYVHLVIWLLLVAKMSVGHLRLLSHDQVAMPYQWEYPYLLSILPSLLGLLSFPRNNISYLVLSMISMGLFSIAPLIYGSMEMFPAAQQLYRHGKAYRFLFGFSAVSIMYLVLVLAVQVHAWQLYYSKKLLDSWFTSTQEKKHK
# UniProt Q13303: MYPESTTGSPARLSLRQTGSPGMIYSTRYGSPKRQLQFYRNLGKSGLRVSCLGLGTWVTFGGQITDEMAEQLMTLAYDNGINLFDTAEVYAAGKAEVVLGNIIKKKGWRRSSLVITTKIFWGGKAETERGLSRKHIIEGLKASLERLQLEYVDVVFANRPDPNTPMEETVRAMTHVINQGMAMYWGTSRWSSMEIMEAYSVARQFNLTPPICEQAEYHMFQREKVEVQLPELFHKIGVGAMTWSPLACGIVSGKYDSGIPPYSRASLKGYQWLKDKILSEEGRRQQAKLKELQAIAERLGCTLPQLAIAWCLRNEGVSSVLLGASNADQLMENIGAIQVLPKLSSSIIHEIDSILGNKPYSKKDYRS
# UniProt Q96MP8: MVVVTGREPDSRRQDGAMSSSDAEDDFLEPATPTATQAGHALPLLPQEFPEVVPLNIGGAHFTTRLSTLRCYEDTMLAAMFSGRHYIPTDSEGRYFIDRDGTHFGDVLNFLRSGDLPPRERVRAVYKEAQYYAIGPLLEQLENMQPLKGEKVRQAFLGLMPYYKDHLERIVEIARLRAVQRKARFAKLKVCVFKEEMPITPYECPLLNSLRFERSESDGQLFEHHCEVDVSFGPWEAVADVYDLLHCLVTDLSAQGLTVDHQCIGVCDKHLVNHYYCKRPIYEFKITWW
# UniProt O95279: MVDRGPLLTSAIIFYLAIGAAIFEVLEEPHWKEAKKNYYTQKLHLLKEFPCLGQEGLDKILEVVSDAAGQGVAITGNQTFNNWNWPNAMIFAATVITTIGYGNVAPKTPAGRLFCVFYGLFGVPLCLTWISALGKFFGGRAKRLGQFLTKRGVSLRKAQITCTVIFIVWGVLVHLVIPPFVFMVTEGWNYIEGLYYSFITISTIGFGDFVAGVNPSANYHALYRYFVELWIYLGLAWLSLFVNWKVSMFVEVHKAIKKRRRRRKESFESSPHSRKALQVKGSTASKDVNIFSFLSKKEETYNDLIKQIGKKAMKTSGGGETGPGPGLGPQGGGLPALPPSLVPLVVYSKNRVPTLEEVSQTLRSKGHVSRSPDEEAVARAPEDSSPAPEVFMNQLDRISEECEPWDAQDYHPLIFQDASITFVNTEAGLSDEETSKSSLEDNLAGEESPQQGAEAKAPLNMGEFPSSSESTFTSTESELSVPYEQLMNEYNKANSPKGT
# UniProt Q8TEX9: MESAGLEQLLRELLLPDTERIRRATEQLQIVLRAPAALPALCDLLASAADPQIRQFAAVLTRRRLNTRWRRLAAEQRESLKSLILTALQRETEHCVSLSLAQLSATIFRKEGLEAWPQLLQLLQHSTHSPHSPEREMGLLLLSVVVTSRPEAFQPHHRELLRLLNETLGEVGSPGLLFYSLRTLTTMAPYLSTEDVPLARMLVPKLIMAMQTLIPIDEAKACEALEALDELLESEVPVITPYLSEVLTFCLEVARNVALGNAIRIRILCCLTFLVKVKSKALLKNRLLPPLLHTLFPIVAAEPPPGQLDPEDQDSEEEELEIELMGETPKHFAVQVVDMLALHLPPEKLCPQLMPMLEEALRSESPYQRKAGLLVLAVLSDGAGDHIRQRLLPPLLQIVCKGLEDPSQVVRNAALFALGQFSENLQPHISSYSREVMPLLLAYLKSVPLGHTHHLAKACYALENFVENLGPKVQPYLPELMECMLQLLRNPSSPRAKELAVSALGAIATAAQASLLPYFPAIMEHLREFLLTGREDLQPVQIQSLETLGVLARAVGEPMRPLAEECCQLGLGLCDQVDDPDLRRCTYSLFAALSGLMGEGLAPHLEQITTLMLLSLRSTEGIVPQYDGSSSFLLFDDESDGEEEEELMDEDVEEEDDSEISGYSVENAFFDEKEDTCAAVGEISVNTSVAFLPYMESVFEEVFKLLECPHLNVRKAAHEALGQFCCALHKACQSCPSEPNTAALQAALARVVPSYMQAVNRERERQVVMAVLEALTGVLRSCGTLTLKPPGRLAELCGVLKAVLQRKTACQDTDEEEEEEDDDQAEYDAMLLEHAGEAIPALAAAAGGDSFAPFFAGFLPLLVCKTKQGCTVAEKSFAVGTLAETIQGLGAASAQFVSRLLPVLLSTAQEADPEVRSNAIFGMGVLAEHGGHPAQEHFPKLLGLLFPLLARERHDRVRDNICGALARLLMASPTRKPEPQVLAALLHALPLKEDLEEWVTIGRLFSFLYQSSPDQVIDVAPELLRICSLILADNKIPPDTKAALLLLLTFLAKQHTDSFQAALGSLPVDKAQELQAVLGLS
# UniProt Q6P9B9, whole entry, looked up: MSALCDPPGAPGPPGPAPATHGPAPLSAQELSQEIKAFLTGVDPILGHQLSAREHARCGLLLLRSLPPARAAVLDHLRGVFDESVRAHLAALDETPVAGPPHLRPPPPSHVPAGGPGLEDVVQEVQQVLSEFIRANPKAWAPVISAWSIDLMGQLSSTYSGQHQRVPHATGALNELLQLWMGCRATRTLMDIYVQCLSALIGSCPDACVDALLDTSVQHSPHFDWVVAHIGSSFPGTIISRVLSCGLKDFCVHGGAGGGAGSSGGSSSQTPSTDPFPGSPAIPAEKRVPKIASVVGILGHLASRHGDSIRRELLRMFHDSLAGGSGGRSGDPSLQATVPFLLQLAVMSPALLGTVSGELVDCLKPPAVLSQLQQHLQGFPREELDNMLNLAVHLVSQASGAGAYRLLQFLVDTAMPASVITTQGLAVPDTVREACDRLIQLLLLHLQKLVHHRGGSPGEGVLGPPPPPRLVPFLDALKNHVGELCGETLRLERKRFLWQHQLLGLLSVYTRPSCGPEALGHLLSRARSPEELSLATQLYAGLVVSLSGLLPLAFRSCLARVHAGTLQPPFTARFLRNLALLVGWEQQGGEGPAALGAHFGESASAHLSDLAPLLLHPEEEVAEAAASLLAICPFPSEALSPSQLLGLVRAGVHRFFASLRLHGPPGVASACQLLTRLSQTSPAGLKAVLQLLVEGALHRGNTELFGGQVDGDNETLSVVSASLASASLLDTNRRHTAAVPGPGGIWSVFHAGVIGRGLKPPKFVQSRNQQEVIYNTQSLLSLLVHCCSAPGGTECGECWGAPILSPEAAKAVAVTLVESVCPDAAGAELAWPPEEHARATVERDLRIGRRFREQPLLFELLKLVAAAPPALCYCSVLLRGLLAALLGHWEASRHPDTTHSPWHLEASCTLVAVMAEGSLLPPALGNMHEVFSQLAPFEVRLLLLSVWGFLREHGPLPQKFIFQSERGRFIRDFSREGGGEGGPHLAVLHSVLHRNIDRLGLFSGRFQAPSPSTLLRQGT
# Some of the results follow.
# Tests used:
# Test in all cases: log2 fold change, soluble protein after heating vs DMSO (PISA); higher = thermal stabilisation; K562 lysate, 10 uM; active = over 0.2 and 3.5 SD of the protein, either way, in both replicates (recomputed)
# [1] = compound: NCC(=O)Nc1ccc(-n2nc(C(F)(F)F)cc2-c2ccc3c(ccc4ccccc43)c2)cc1
# In short: (§1)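 Following dounce homogenisation of K562 pellets in PBS pH 7.4 with 1 mM MgCl2, crude extract at 1 mg/mL protein was incubated for 30 min with 10 μM compound. Aliquots were then heated for 3 min over 48°C-58°C and pooled, NP-40 was added to 0.5% at 4°C, and soluble protein was recovered as the supernatant at 21,000xg for 90 min. Channel-sum-equalised TMTpro 16plex LC-MS/MS quantified this protein. Each value, from duplicates, is a log-two fold change in thermal stability relative to solvent controls.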
# [2] = compound: O=C(CCCCCCC(=O)Nc1ccccc1)NO [vorinostat]
# In short: as §1
# [3] = compound: O=C(O)c1ccc2c(c1)nc(Nc1cccc(Cl)c1)c1ccncc12 [silmitasertib]
# In short: as §1
# [4] = compound: O=C1NC(=O)C(c2cnc3ccccn23)=C1c1cn2c3c(cc(F)cc13)CN(C(=O)N1CCCCC1)CC2
# In short: as §1
# [5] = compound: c1cn2cc(-c3ccc4cn[nH]c4c3)nc(Nc3ccc(N4CCOCC4)cc3)c2n1 [entospletinib]
# In short: as §1
Target,log2 fold change [1],log2 fold change [2],log2 fold change [3],log2 fold change [4],log2 fold change [5]
KDM3A (UniProt Q9Y4C1),inactive: -0.017,inactive: -0.147,inactive: 0.025,inactive: -0.018,inactive: 0.001
IRF2 (UniProt P14316),inactive: -0.012,inactive: -0.086,inactive: 0.028,inactive: -0.002,inactive: 0.015
IP6K1 (UniProt Q92551),inactive: 0.08,inactive: -0.243,inactive: 0.09,inactive: -0.058,inactive: -0.068
ITCH (UniProt Q96J02),inactive: 0.022,inactive: 0.013,inactive: 0.002,inactive: -0.008,inactive: 0.03
ITGB5 (UniProt P18084),inactive: 0.024,inactive: 0.063,inactive: -0.001,inactive: -0.05,inactive: 0.042
JPT2 isoform 3 (UniProt Q9H910),inactive: 0.04,inactive: 0.076,inactive: -0.016,inactive: 0.003,inactive: 0.004
ITGA2B (UniProt P08514),inactive: 0.131,inactive: 0.128,inactive: 0.017,inactive: -0.106,–
IQSEC2 (UniProt Q5JU85),inactive: -0.031,inactive: -0.228,inactive: -0.007,inactive: 0.008,inactive: -0.108
JAK2 (UniProt O60674),inactive: 0.008,inactive: -0.267,inactive: -0.048,–,–
IQGAP3 (UniProt Q86VI3),inactive: -0.186,inactive: -0.271,inactive: 0.048,inactive: -0.054,–
KATNA1 (UniProt O75449),inactive: 0.03,inactive: -0.17,inactive: 0.048,inactive: 0.003,inactive: 0.025
ITGA5 (UniProt P08648),inactive: 0.024,inactive: 0.102,inactive: -0.011,inactive: -0.01,inactive: -0.021
KAT6B (UniProt Q8WYB5),inactive: 0.076,inactive: -0.203,inactive: 0.158,inactive: 0.099,inactive: -0.039
ITSN1 isoform 8 (UniProt Q15811),inactive: 0.008,inactive: 0.076,inactive: -0.021,inactive: -0.021,inactive: 0.009
JAGN1 (UniProt Q8N5M9),inactive: -0.056,inactive: 0.135,inactive: -0.068,inactive: 0.074,inactive: -0.051
KCNAB2 (UniProt Q13303),inactive: 0.011,inactive: 0.211,inactive: -0.032,inactive: -0.008,inactive: 0.007
INTU (UniProt Q9ULD6),inactive: 0.296,–,–,–,–
JMJD4 (UniProt Q9H9V9),inactive: -0.056,inactive: -0.277,inactive: 0.073,inactive: -0.017,inactive: 0.006
KCTD7 (UniProt Q96MP8),inactive: -0.093,inactive: -0.093,inactive: -0.097,inactive: -0.362,inactive: -0.038
ISOC1 (UniProt Q96CN7),inactive: -0.029,inactive: 0.15,inactive: -0.065,inactive: 0.055,inactive: 0.024
KCNK5 (UniProt O95279),inactive: -0.695,inactive: 0.133,inactive: -0.2,inactive: -0.243,–
IPO13 (UniProt O94829),inactive: -0.044,inactive: -0.179,inactive: 0.016,inactive: -0.02,inactive: -0.005
IPO4 isoform 2 (UniProt Q8TEX9),inactive: -0.005,inactive: -0.043,inactive: 0.031,inactive: 0.003,inactive: -0.001
INTS9 (UniProt Q9NV88),inactive: -0.016,inactive: 0.029,inactive: -0.009,inactive: 0.001,inactive: 0.013
KBTBD8 (UniProt Q8NFY9),inactive: 0.019,inactive: -0.152,inactive: -0.019,inactive: -0.029,inactive: -0.034
IQUB (UniProt Q8NA54),inactive: 0.087,–,–,–,–
IPO5 isoform 3 (UniProt O00410),inactive: -0.009,inactive: 0.05,inactive: 0.002,inactive: 0.018,inactive: 0.021
INTS5 (UniProt Q6P9B9),inactive: -0.045,active: -0.56,inactive: 0.088,inactive: 0.039,inactive: 0.093
KATNB1 (UniProt Q9BVA0),inactive: -0.075,inactive: -0.233,inactive: 0.053,inactive: -0.036,inactive: 0.02

# Some of the entries so far, bar-delimited:
Target | log2 fold change [1] | log2 fold change [2] | log2 fold change [3] | log2 fold change [4] | log2 fold change [5]
KDM3A (UniProt Q9Y4C1) | inactive: -0.017 | inactive: -0.147 | inactive: 0.025 | inactive: -0.018 | inactive: 0.001
IRF2 (UniProt P14316) | inactive: -0.012 | inactive: -0.086 | inactive: 0.028 | inactive: -0.002 | inactive: 0.015
IP6K1 (UniProt Q92551) | inactive: 0.08 | inactive: -0.243 | inactive: 0.09 | inactive: -0.058 | inactive: -0.068
ITCH (UniProt Q96J02) | inactive: 0.022 | inactive: 0.013 | inactive: 0.002 | inactive: -0.008 | inactive: 0.03
ITGB5 (UniProt P18084) | inactive: 0.024 | inactive: 0.063 | inactive: -0.001 | inactive: -0.05 | inactive: 0.042
JPT2 isoform 3 (UniProt Q9H910) | inactive: 0.04 | inactive: 0.076 | inactive: -0.016 | inactive: 0.003 | inactive: 0.004
ITGA2B (UniProt P08514) | inactive: 0.131 | inactive: 0.128 | inactive: 0.017 | inactive: -0.106 | –
